Measurements reported in a protein production outcome set (Wang et al. 2014).

Assay: label from the status in PepcDB records
With “MDDAHESPSDKGGETGESDETAAVPGDPGATDTDGIPEETDGDADVDLKEAAAEEGELESQDVSDLTTVEREDSSLLNPAAKKLKIDTKEKKEKKQKVDEDEIQKMQILVSSFSEEQLNRYEMYRRSAFPKAAIKRLIQSITGTSVSQNVVIAMSGISKVFVGEVVEEALDVCEKWGEMPPLQPKHMREAVRRLKSKGQIPNSKHKKIIFF” the protein production was “not failed”.
With “MAASVEDEFEDAPDVEPLEPTLKNIIEQKSLKWIFVGGKGGVGKTTCSCSLAVQLAAVRESVLTRFEEPTRSTLSPSSCWSPTALPKSDLNHSHGSNTHLFYTRAQTHCLSIWFSANALIDAAPVIHNECWARFKGTVHPNKVHFYSPSSACKHL” the protein production was “failed”.
In the case of “MSGLWQSMTTAWMSRTDRSALLDFWLGGRGAGTLIANTDIDEQEMRRIRAAQINSVTRLTPVTMSINVANAALILFTFWDNDARPQLLAWTAMIVFAAGSAVQSWLRNRFEPRLEASAHAIRRMTLHALLLGLIWGAMPVMVFVKADPGDQLIVACVAAGMISGGAFTLSTVPRAGLAYTWSLAAGSALSLALCDGMAYRITAAFLVLYAVFMSRNLISHGEMFFDNLRAKFELERQTEIISLLLKDFQANASDWLWQTDAHGRLVHVPERFVEVAKLPPSLLIGAPLADVIGMLCPEDGRCAMGVAAKMAQREPMNDLVVHVVIGGTPRLWSLTAKPMFDAAGEFAGYRGVGRDVTERWRAEQAEAENRAKSSFLAMMSHEIRTPMNGVLGLANSLLETKLDPEQQQAVTTIRDSGDDLLRILNDILDLSKLEAGRLEFEQADFSPTTLVESVRAIIEPEVRGKGIELKVDIDPRLPPSLNGDAARIRQVLLNLAANAVKFTEQGSIAIVLTCVKRNDSHATVEWQVTDTGIGISPDRVGSLFTDFAQADVSINRRFGGTGLGLAISRRIVEQMGGDIAVTSREGEGSTFRFSLDLPWSNAWIADHRLDRLGSDDLRTRIAMLGRPLRVLIAEDDSTNQMVVMKMLQEFAAEITVVSDGTDAVQAAGEGEFDVVLMDVRMPNMDGLAATRAIRGKGGALAKLPIIALTANAFPDDVKVCRDAGMNDFLAKPLRKPALVAAVLRALRGASTPVTMPSPPMLVDLDTLAELTAEIGQDQVNEMVALFFAETERRIALFRRFAEHMDRHDLEVEAHSLKGGARTLGFHPIAEIARSIEREAGSISPEALDLFTGQLNKALIELRRQCEGSLKLAS”, the protein production is reported as “failed”.
For “MHHRMNEMNLSPVGMEQLTSSSVSNALPVSGSHLGLAASPTHSAIPAPGLPVAIPNLGPSLSSLPSALSLMLPMGIGDRGVMCGLPERNYTLPPPPYPHLESSYFRTILPGILSYLADRPPPQYIHPNSINVDGNTALSITNNPSALDPYQSNGNVGLEPGIVSIDSRSVNTHGAQSLHPSDGHEVALDTAITMENVSRVTSPISTDGMAEELTMDGVAGEHSQIPNGSRSHEPLSVDSVSNNLAADAVGHGGVIPMHGNGLELPVVMETDHIASRVNGMSDSALSDSIHTVAMSTNSVSVALSTSHNLASLESVSLHEVGLSLEPVAVSSITQEVAMGTGHVDVSSDSLSFVSPSLQMEDSNSNKENMATLFTIWCTLCDRAYPSDCPEHGPVTFVPDTPIESRARLSLPKQLVLRQSIVGAEVGVWTGETIPVRTCFGPLIGQQSHSMEVAEWTDKAVNHIWKIYHNGVLEFCIITTDENECNWMMFVRKARNREEQNLVAYPHDGKIFFCTSQDIPPENELLFYYSRDYAQQIGVPEHPDVHLCNCGKECNSYTEFKAHLTSHIHNHLPTQGHSGSHGPSHSKERKWKCSMCPQAFISPSKLHVHFMGHMGMKPHKCDFCSKAFSDPSNLRTHLKIHTGQKNYRCTLCDKSFTQKAHLESHMVIHTGEKNLKCDYCDKLFMRRQDLKQHVLIHTQERQIKCPKCDKLFLRTNHLKKHLNSHEGKRDYVCEKCTKAYLTKYHLTRHLKTCKGPTSSSSAPEEEEEDDSEEEDLADSVGTEDCRINSAVYSADESLSAHK”, the protein production was “failed”.
For “MLESGVLKEGALEKRSDGLLQLWKKKRCVLTEDGLVLHPHKHHHQHQHQQQHDTGCKVKELHFANMKTVDCVERKGKYVYFTVVMSEGREIDFRCLQDEGWNAEITLRMVQYKNRQAILAVKSSRQKQQQLLVVSAQKMVRSAQ”, the protein production was “failed”.
With “EILDEEENFKAKGDIFSKRTITKAKVIDHVDTSLEALVLSVSEKGYVDFDYMGSLTGKDRATLIEELRGEIYLNIREEQNFYRPLSFNPEDGDLPFACANGSNSYKYGYVTKDEYLSGNIRDKIAIVDSYLSKLRQTERELPHLGFVENGKEKELISYEMNRLEYQKAELTKILPKELEASEINVRLGATWIPIKDIEKFIFETLKTPGYARWDIKVKFSNITSEWNVDGKSRDKGNDLAEMTFGTSRVNAYKLIEDALNLKETKVFDQIINPDGSKTSVLNKKETMLAGQKQELLKEEFKNWIFNDQERRNRLVKLYNERFNSIRNREYDGSNLSFEGMNTEIDLRPHQ” the protein production was “failed”.
